The supplement of paper PMC12819154, “High-throughput peptide-centric local stability assay extends protein–ligand identification to membrane proteins, tissues and bacteria” (Nature Structural & Molecular Biology, 2025)
This is one part of the list. Most entries show no effect beyond the scatter of the controls.

Chains of the proteins cited; added tags and fusions are not shown. Lines headed by an entry give the natural chain unless they say otherwise; changes in a name come on top.
UniProt Q8BRH0: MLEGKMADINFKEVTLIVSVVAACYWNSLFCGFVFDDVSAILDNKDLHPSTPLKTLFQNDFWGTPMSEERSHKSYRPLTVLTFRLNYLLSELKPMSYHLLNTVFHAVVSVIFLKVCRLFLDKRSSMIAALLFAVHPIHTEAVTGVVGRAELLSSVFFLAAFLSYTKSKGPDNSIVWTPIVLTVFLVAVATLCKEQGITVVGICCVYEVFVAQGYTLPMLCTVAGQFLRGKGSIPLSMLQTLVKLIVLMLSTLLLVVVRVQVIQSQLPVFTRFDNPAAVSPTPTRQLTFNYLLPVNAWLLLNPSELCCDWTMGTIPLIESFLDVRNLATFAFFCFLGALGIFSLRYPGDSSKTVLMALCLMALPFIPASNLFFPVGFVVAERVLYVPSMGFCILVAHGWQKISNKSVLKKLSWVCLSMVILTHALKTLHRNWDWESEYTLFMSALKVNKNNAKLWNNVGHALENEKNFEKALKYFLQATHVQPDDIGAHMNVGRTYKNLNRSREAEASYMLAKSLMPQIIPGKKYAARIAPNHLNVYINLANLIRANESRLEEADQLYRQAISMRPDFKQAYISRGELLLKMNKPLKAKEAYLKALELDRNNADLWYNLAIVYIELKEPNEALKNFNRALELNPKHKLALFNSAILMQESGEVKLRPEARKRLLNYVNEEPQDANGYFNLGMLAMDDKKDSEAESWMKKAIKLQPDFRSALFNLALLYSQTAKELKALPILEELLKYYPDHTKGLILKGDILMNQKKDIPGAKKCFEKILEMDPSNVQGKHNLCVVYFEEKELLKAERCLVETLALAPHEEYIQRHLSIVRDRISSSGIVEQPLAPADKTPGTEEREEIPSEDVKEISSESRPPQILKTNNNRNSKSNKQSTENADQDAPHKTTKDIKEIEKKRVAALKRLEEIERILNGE
UniProt Q8BSE0: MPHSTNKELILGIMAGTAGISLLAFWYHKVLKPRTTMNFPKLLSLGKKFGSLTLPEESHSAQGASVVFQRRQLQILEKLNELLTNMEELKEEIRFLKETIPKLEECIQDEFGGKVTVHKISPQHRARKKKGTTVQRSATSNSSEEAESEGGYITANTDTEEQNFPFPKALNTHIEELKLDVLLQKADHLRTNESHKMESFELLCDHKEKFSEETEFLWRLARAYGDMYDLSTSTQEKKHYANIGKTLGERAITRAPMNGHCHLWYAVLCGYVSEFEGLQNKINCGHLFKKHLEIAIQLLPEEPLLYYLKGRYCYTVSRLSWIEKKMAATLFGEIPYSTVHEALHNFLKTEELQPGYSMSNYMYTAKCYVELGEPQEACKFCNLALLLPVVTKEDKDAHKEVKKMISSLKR
UniProt Q8BK58: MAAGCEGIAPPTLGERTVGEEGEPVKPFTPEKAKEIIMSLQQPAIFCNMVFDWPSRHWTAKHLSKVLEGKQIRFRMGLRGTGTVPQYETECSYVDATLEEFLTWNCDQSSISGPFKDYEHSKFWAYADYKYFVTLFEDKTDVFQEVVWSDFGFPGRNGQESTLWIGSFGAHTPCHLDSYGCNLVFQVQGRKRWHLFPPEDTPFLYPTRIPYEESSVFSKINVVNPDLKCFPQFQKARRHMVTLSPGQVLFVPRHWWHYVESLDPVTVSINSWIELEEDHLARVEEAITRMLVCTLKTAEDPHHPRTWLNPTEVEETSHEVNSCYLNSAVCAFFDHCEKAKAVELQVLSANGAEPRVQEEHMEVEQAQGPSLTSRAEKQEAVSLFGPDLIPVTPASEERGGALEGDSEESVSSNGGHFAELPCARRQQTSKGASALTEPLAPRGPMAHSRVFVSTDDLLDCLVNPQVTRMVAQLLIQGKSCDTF
UniProt Q8BT35: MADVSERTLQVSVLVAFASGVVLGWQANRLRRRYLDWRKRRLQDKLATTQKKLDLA
UniProt Q8BTW8: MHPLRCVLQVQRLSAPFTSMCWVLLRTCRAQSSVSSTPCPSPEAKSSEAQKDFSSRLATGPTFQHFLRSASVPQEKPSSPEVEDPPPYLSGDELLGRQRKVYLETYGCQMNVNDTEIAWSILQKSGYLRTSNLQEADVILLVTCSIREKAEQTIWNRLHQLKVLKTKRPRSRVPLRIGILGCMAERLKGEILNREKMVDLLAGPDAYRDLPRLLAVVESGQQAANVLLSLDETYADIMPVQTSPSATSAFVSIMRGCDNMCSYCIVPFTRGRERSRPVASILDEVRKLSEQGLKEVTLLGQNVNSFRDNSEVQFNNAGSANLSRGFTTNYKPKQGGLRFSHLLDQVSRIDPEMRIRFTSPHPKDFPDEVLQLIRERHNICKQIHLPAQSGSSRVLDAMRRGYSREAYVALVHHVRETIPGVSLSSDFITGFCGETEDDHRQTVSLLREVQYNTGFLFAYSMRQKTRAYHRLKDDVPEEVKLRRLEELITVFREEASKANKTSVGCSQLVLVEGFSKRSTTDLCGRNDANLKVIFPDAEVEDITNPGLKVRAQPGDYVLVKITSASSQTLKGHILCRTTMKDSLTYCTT
UniProt Q8BJF9, whole entry: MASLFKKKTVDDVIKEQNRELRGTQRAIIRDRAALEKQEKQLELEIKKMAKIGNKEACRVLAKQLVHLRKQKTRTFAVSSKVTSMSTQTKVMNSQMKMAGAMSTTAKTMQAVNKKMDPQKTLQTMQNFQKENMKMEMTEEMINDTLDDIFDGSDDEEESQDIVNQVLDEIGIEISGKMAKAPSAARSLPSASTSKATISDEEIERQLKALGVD
UniProt Q8BR90: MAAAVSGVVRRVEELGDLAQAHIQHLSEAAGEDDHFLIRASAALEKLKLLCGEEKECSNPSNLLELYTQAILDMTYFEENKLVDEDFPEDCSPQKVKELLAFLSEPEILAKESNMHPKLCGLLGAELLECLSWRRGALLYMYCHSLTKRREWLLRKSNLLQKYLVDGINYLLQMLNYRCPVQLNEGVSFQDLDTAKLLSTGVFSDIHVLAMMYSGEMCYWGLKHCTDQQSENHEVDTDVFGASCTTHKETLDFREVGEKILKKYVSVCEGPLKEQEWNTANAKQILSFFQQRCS
UniProt Q8BP56: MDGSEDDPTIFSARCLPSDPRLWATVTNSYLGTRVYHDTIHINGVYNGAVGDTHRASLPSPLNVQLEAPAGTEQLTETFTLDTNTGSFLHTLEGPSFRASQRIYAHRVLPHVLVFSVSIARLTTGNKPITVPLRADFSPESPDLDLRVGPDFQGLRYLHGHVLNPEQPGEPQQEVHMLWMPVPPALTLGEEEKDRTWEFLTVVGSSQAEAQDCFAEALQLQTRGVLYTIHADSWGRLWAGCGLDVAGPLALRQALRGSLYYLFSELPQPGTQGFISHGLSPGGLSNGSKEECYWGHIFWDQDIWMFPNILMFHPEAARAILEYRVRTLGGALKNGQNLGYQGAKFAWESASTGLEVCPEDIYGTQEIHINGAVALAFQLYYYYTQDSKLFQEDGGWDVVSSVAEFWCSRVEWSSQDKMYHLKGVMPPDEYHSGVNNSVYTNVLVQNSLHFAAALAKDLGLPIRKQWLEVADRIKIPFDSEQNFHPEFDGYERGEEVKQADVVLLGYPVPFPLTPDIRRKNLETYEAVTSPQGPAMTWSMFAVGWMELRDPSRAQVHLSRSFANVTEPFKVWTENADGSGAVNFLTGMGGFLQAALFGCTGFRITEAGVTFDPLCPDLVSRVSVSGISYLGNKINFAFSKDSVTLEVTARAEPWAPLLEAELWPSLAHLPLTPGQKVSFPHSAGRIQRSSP
UniProt Q8BU33: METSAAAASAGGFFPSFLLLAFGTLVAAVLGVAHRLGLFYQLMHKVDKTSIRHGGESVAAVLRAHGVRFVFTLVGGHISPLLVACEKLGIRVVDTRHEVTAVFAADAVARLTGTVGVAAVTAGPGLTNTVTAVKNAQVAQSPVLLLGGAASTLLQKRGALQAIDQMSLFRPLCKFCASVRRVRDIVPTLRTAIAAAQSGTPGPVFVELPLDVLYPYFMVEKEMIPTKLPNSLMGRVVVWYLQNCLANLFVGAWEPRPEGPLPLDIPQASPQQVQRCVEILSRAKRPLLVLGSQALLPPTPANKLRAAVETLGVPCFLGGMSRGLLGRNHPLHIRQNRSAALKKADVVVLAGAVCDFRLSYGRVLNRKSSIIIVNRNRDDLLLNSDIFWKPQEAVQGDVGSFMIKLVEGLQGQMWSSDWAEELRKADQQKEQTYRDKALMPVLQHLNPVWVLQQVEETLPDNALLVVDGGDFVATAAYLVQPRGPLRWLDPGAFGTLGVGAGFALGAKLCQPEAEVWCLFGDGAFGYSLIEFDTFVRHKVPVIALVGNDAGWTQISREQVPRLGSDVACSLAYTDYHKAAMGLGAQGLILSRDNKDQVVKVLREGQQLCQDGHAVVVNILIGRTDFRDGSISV
UniProt Q8BTI9: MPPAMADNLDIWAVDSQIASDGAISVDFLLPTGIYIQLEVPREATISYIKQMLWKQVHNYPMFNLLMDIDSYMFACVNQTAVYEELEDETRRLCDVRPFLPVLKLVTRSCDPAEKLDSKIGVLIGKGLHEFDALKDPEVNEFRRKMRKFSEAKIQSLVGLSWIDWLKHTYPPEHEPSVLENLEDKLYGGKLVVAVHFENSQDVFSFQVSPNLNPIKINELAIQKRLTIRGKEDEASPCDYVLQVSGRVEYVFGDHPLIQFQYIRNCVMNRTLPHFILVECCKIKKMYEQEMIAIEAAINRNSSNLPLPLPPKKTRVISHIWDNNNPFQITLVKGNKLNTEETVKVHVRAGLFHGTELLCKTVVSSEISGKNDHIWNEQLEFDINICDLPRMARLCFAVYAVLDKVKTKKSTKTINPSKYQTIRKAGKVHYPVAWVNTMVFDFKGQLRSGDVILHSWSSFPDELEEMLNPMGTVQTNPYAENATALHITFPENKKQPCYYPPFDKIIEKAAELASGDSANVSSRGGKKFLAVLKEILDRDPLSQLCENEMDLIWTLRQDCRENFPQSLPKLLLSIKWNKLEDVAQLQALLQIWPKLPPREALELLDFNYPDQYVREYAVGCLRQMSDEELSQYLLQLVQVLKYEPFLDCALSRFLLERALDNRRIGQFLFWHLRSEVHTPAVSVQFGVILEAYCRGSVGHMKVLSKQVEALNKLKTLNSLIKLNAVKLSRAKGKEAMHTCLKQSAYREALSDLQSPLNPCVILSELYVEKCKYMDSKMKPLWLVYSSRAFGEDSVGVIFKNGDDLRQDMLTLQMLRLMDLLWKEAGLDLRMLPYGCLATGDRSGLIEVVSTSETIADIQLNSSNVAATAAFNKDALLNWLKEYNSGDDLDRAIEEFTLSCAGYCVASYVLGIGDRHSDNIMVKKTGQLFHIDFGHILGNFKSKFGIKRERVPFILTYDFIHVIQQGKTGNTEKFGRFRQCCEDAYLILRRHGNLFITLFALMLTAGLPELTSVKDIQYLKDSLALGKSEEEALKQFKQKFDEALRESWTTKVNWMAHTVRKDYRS
UniProt Q8BIF2: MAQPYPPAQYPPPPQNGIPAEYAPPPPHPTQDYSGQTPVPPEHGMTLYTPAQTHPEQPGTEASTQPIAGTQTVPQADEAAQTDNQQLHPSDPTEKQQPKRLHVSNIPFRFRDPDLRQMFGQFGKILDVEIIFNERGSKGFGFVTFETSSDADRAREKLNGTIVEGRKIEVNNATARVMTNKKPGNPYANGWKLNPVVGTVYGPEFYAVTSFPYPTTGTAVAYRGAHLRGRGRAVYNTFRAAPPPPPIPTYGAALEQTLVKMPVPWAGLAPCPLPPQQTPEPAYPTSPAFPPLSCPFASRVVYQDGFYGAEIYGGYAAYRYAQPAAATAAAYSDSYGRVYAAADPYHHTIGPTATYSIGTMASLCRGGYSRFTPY
UniProt Q8BND5: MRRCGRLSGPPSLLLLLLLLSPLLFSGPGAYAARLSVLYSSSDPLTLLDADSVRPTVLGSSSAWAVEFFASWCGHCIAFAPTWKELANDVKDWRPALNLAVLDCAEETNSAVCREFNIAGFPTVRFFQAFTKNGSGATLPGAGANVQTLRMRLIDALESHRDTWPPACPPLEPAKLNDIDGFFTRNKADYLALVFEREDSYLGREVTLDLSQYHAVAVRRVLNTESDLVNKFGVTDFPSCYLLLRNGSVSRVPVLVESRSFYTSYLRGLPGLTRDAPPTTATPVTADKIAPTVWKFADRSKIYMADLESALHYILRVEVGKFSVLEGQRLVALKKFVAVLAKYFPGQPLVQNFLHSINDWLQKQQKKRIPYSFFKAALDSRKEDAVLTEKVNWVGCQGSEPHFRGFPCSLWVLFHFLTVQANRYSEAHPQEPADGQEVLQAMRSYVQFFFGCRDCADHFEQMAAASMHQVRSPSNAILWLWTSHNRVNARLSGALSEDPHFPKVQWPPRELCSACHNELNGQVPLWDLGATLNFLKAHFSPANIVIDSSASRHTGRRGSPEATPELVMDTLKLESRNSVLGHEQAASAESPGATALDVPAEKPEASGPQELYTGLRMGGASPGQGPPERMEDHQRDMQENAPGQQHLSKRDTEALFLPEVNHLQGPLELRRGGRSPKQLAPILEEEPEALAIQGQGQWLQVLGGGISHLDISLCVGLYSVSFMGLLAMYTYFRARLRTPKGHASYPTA

Compound: CN[C@@H]1C[C@H]2O[C@@](C)([C@@H]1OC)n1c3ccccc3c3c4c(c5c6ccccc6n2c5c31)C(=O)NC4 [staurosporine]
Experiment: log2 fold change of tryptic peptide abundance, ligand vs vehicle (limited proteolysis) (log2 ratio); higher = more trypsin-susceptible (destabilized)
Conditions: ligand concentration: 20 uM; sample: mouse liver crude lysate; replicate design: treated separately

Target | log2 fold change
UniProt Q8BRH0 (peptide sequence: ILEMDPSNVQGK, peptide start residue: 768) | -1.03
UniProt Q8BMS2 (peptide sequence: AFAPPSLDLASR, peptide start residue: 249) | -0.113
UniProt Q8BIY3 (peptide sequence: LGYSQEDVVR, peptide start residue: 13) | 0.00468
UniProt Q8BLN5 (peptide sequence: EQTGLEAHSLGLDTR, peptide start residue: 48) | -0.248
UniProt Q8BKT7 (peptide sequence: AEITMGDPHQQTLAR, peptide start residue: 176) | 0.19
UniProt Q8BHY3 (peptide sequence: VYHISETR, peptide start residue: 181) | 0.419
UniProt Q8BPN8 (peptide sequence: CIAGEVAIVRDPDAGEGTKR, peptide start residue: 1373) | -0.33
UniProt Q8BKX6 (peptide sequence: SHLMELGLTAAK, peptide start residue: 1417) | 0.327
UniProt Q8BSE0 (peptide sequence: YCYTVSR, peptide start residue: 312) | 0.144
UniProt Q8BRH4 (peptide sequence: GPLTTGTSDHFTKPSPR, peptide start residue: 1993) | 0.449
UniProt Q8BK58 (peptide sequence: MLVCTLK, peptide start residue: 290) | 0.229
UniProt Q8BQX5 (peptide sequence: ALLQLEAAR, peptide start residue: 122) | -0.349
UniProt Q8BT35 (peptide sequence: RLQDKLATTQK, peptide start residue: 41) | -0.447
UniProt Q8BUY5 (peptide sequence: YIEQSQAEIYHNRFDAVQSAHR, peptide start residue: 104) | 0.374
UniProt Q8BN57 (peptide sequence: DSYHDSR, peptide start residue: 255) | -0.388
UniProt Q8BTV2 (peptide sequence: HRDLLHNEDRHDDYFQER, peptide start residue: 438) | -0.852
UniProt Q8BTW8 (peptide sequence: LATGPTFQHFLR, peptide start residue: 57) | 0.231
UniProt Q8BJF9 (peptide sequence: VTSMSTQTK, peptide start residue: 82) | -0.13

In a second layout: results already given.
UniProt Q8BUY5 (peptide sequence: YIEQSQAEIYHNRFDAVQSAHR, peptide start residue: 104)
  log2 fold change: 0.374
UniProt Q8BN57 (peptide sequence: DSYHDSR, peptide start residue: 255)
  log2 fold change: -0.388
UniProt Q8BTV2 (peptide sequence: HRDLLHNEDRHDDYFQER, peptide start residue: 438)
  log2 fold change: -0.852

Further records.

Target | log2 fold change
UniProt Q8BR90 (peptide sequence: EQEWNTANAK, peptide start residue: 274) | 0.168
UniProt Q8BTJ4 (peptide sequence: SRASTSRPFSR, peptide start residue: 433) | 1.59
UniProt Q8BP56 (peptide sequence: NGQNLGYQGAK, peptide start residue: 334) | 0.261
UniProt Q8BU33 (peptide sequence: LGSDVACSLAYTDYHK, peptide start residue: 562) | -0.408
UniProt Q8BJL0 (peptide sequence: KWSFLLEEHNK, peptide start residue: 330) | 0.261
UniProt Q8BP22 (peptide sequence: CTSGTGQISTCR, peptide start residue: 253) | 0.527
UniProt Q8BMS4 (peptide sequence: GETGALHANTSGSPSVR, peptide start residue: 349) | -0.141
UniProt Q8BTI9 (peptide sequence: LMDLLWK, peptide start residue: 816) | -0.189
UniProt Q8BIF2 (peptide sequence: KIEVNNATAR, peptide start residue: 248) | 0.339
UniProt Q8BND5 (peptide sequence: DMQENAPGQQHLSK, peptide start residue: 636) | 0.432
UniProt Q8BTK5 (peptide sequence: HGPSSVEIGHELFK, peptide start residue: 728) | 0.103
UniProt Q8BR07 (peptide sequence: VMLDYYR, peptide start residue: 554) | 0.169
UniProt Q8BPA8 (peptide sequence: MVHYLFPDGK, peptide start residue: 25) | 0.404
UniProt Q8BL48 (peptide sequence: ASAAGAECELAR, peptide start residue: 689) | -0.289
UniProt Q8BKC5 (peptide sequence: FYFHDGVR, peptide start residue: 713) | 0.333
UniProt Q8BTF7 (peptide sequence: LILPQLER, peptide start residue: 70) | 0.384
UniProt Q8BL65 (peptide sequence: LGDEILDYR, peptide start residue: 303) | 0.452
UniProt Q8BP47 (peptide sequence: MNYSDAIEWLKEHDVK, peptide start residue: 402) | 0.2
